Test results from the supplement of paper PMC8728848.
The list shows a part of the results.

Experiments:
Assay in all cases: glycan array binding signal (z-score within array); higher = stronger binding
Conditions in all cases: glycan notation: IUPAC condensed, linker removed
[1] = biological target: Fuc(a1-2)[Gal(a1-4)]Gal(b1-4)GlcNAc
Method in brief: (§1)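 Glycan array data came from 3228 arrays in the Consortium for Functional Glycomics database, and only arrays with an available protein sequence were kept. Glycan names were put into IUPAC-condensed notation, and columns mapping to the same glycan were averaged. The binding signal is a within-array Z-score, averaged across arrays of one protein sequence run at different concentrations or buffers and across linkers. A negative Z-score can be read as non-binding.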

[2] = biological target: Fuc(a1-2)[GalNAc(a1-3)]Gal
Method in brief: as §1

[3] = biological target: Fuc(a1-2)[GalNAc(a1-3)]Gal(b1-3)GalNAc(a1-3)[Fuc(a1-2)]Gal(b1-4)GlcNAc
Method in brief: as §1

[4] = biological target: Fuc(a1-2)[GalNAc(a1-3)]Gal(b1-3)GlcNAc
Method in brief: as §1

[5] = biological target: Fuc(a1-2)[GalNAc(a1-3)]Gal(b1-3)GlcNAc(b1-2)Man(a1-3)[Fuc(a1-2)[GalNAc(a1-3)]Gal(b1-3)GlcNAc(b1-2)Man(a1-6)]Man(b1-4)GlcNAc(b1-4)GlcNAc
Method in brief: as §1

[6] = biological target: Fuc(a1-2)[GalNAc(a1-3)]Gal(b1-4)Glc
Method in brief: as §1

[7] = biological target: Fuc(a1-2)[GalNAc(a1-3)]Gal(b1-4)GlcNAc
Method in brief: as §1

[8] = biological target: Fuc(a1-2)[GalNAc(a1-3)]Gal(b1-4)GlcNAc(b1-2)Man(a1-3)[Fuc(a1-2)[GalNAc(a1-3)]Gal(b1-4)GlcNAc(b1-2)Man(a1-6)]Man(b1-4)GlcNAc(b1-4)GlcNAc
Method in brief: as §1

[9] = biological target: Fuc(a1-2)[GalNAc(a1-3)]Gal(b1-4)GlcNAc(b1-3)Gal(b1-4)GlcNAc
Method in brief: as §1

[10] = biological target: Fuc(a1-2)[GalNAc(a1-3)]Gal(b1-4)GlcNAc(b1-3)Gal(b1-4)GlcNAc(b1-3)Gal(b1-4)GlcNAc
Method in brief: as §1

[11] = biological target: Fuc(a1-2)[GalNAc(a1-3)]Gal(b1-4)[Fuc(a1-3)]GlcNAc
Method in brief: as §1

[12] = biological target: Fuc(a1-2)[GalNAc(a1-4)]Gal(b1-4)GlcNAc
Method in brief: as §1

[13] = biological target: Fuc(a1-2)[GalNAc(b1-3)]Gal
Method in brief: as §1

[14] = biological target: Fuc(a1-3)GlcNAc
Method in brief: as §1

[15] = biological target: Fuc(a1-3)[Gal(b1-4)]Glc6S
Method in brief: as §1

[16] = biological target: Fuc(a1-3)[Gal(b1-4)]GlcNAc
Method in brief: as §1

[17] = biological target: Fuc(a1-3)[Gal(b1-4)]GlcNAc(b1-2)Man(a1-3)[Fuc(a1-3)[Gal(b1-4)]GlcNAc(b1-2)Man(a1-6)]Man(b1-4)GlcNAc(b1-4)GlcNAc
Method in brief: as §1

[18] = biological target: Fuc(a1-3)[Gal(b1-4)]GlcNAc(b1-3)Gal(b1-3)[Fuc(a1-4)]GlcNAc
Method in brief: as §1

[19] = biological target: Fuc(a1-3)[Gal(b1-4)]GlcNAc(b1-3)GalNAc
Method in brief: as §1

[20] = biological target: Fuc(a1-3)[Gal(b1-4)]GlcNAc(b1-4)Gal(b1-4)[Fuc(a1-3)]GlcNAc
Method in brief: as §1

[21] = biological target: Fuc(a1-3)[Gal(b1-4)]GlcNAc(b1-4)Gal(b1-4)[Fuc(a1-3)]GlcNAc(b1-4)Gal(b1-4)[Fuc(a1-3)]GlcNAc
Method in brief: as §1

[22] = biological target: Fuc(a1-3)[Gal(b1-4)]GlcNAc(b1-6)[Gal(b1-3)GlcNAc(b1-3)]Gal(b1-4)Glc
Method in brief: as §1

[23] = biological target: Fuc(a1-3)[Gal(b1-4)]GlcNAc6S
Method in brief: as §1

[24] = biological target: Fuc(a1-3)[Gal3S(b1-4)]GlcNAc
Method in brief: as §1

[25] = biological target: Fuc(a1-3)[Gal3S(b1-4)]GlcNAc6S
Method in brief: as §1

[26] = biological target: Fuc(a1-3)[GalNAc(b1-4)]GlcNAc
Method in brief: as §1

[27] = biological target: Fuc(a1-4)GlcNAc
Method in brief: as §1

[28] = biological target: Fuc(b1-3)GlcNAc
Method in brief: as §1

[29] = biological target: Gal(a1-2)Gal
Method in brief: as §1

[30] = biological target: Gal(a1-3)Gal
Method in brief: as §1

[31] = biological target: Gal(a1-3)Gal(b1-3)GlcNAc
Method in brief: as §1

[32] = biological target: Gal(a1-3)Gal(b1-3)GlcNAc(b1-2)Man(a1-3)[Gal(a1-3)Gal(b1-3)GlcNAc(b1-2)Man(a1-6)]Man(b1-4)GlcNAc(b1-4)GlcNAc
Method in brief: as §1

[33] = biological target: Gal(a1-3)Gal(b1-3)[Fuc(a1-4)]GlcNAc(b1-2)Man(a1-3)[Gal(a1-3)Gal(b1-3)[Fuc(a1-4)]GlcNAc(b1-2)Man(a1-6)]Man(b1-4)GlcNAc(b1-4)GlcNAc
Method in brief: as §1

[34] = biological target: Gal(a1-3)Gal(b1-4)Glc
Method in brief: as §1

[35] = biological target: Gal(a1-3)Gal(b1-4)GlcNAc
Method in brief: as §1

[36] = biological target: Gal(a1-3)Gal(b1-4)GlcNAc(b1-3)GalNAc
Method in brief: as §1

[37] = biological target: Gal(a1-3)Gal(b1-4)[Fuc(a1-3)]GlcNAc
Method in brief: as §1

[38] = biological target: Gal(a1-3)Gal(b1-4)[Fuc(a1-3)]GlcNAc(b1-2)Man(a1-3)[Gal(a1-3)Gal(b1-4)[Fuc(a1-3)]GlcNAc(b1-2)Man(a1-6)]Man(b1-4)GlcNAc(b1-4)GlcNAc
Method in brief: as §1

B1: BSR4 (Toxoplasma gondii), Q95NL6 (protein)
chain: MVMMGSMQQRRGGLRSNARQLLAVCMSGVVFFSSGQAVADNLLEGLLHRTLQQQVEVTSRLTVAGSDAKCDFFTPATQDSPPVSGSLTLSKGRMTATFECSATQALSISTIPTNIEQNVCDPKKTTNGTVCQFGANGSAGTEVTLKDLLETDRIVNWKVNEQREESNKSQKWSLELHNEDLPLTDKAFVVGCQATSAARGTESGKTAACKLTVNVEARASSLAENNVVTCAYGKGSNPNPVEVEMSTEKNTLTINCGSDGSLQPTTYAEEYCVADSKDVNRCSTTRFVEIFPKFLKSWWVTETQKRTSATLTIPQTDLPEADQQFLVGCVPKKTAPEDPKKDKESGTETGAPTSCTVLVTVKAASSASHASPTVQILAAASSAAA
glycan array binding signal (z-score) [1]: -0.293
glycan array binding signal (z-score) [2]: 0.465
glycan array binding signal (z-score) [3]: 0.417
glycan array binding signal (z-score) [4]: 0.482
glycan array binding signal (z-score) [5]: -0.427
glycan array binding signal (z-score) [6]: 0.303
glycan array binding signal (z-score) [7]: -0.073
glycan array binding signal (z-score) [8]: -0.071
glycan array binding signal (z-score) [9]: 0.25
glycan array binding signal (z-score) [10]: 0.347
glycan array binding signal (z-score) [11]: 0.816
glycan array binding signal (z-score) [12]: -0.251
glycan array binding signal (z-score) [13]: 0.271
glycan array binding signal (z-score) [14]: -1.05
glycan array binding signal (z-score) [15]: 0.507
glycan array binding signal (z-score) [16]: 0.23
glycan array binding signal (z-score) [17]: -0.078
glycan array binding signal (z-score) [18]: -0.355
glycan array binding signal (z-score) [19]: 0.599
glycan array binding signal (z-score) [20]: 1.44
glycan array binding signal (z-score) [21]: 0.049
glycan array binding signal (z-score) [22]: 0.068
glycan array binding signal (z-score) [23]: 0.805
glycan array binding signal (z-score) [24]: 0.276
glycan array binding signal (z-score) [25]: 0.574
glycan array binding signal (z-score) [26]: 0.065
glycan array binding signal (z-score) [27]: 0.324
glycan array binding signal (z-score) [28]: -0.078
glycan array binding signal (z-score) [29]: 0.204
glycan array binding signal (z-score) [30]: -0.103
glycan array binding signal (z-score) [31]: -1.03
glycan array binding signal (z-score) [32]: 1.28
glycan array binding signal (z-score) [33]: 0.647
glycan array binding signal (z-score) [34]: -0.417
glycan array binding signal (z-score) [35]: -0.719
glycan array binding signal (z-score) [36]: -0.442
glycan array binding signal (z-score) [37]: 0.809
glycan array binding signal (z-score) [38]: 0.512
